Results published in the supplement of paper PMC8426693.
This is one part of the list.

Legend:
Assay in all cases: NMR binding call after quantification (hit when 2 of 3 NMR criteria are met) (binary (1 = binding, 0 = not binding)); higher = binding
Details in all cases: RNA concentration 10 µM; fragment concentration 200 µM; 293 K
SARS-CoV-2 5_SL7 RNA = tested on: SARS-CoV-2 5_SL7 RNA
SARS-CoV-2 5_SL8 RNA = tested on: SARS-CoV-2 5_SL8 RNA
[1] = tested on: SARS-CoV-2 attenuator hairpin (att HP) RNA
[2] = tested on: SARS-CoV-2 frameshift pseudoknot (PK) RNA

Measured: NMR binding call

CC1CCN(CCN)CC1
0: all assays above

Cc1ccsc1CNC(C)(C)CO
0: all assays above

CNCCC1CCCCC1
0: all assays above

CN1CCN(C(=O)c2ccc(F)c(F)c2)CC1
0: all assays above

O=C(O)COCc1ccccc1
0: all assays above

CC1CN(Cc2nnsc2Cl)C(C)CO1 (stereo not given)
0: all assays above

CNCc1cccc(OC)n1
0: all assays above

CC1(S(=O)(=O)N2CCC=C(F)C2)CC1
0: all assays above

Cc1nc2ccccc2n1CCC(N)=O
0: all assays above

CC(=O)N1CCN(C(N)=O)CC1
0: all assays above

CCCC(=O)NCc1nc2ccccc2[nH]1
0: all assays above

CC(=O)N1Cc2ccc(N)cc2C1
0: all assays above

O=C(NCc1ccccc1)c1cccc(F)c1
0: all assays above

CC(C)CNC(=O)c1ccc2ccccc2c1
0: all assays above

O=C(Nc1nncs1)c1ccccc1F
0: all assays above

O=C(Nc1ccc(O)cc1)N1CCOCC1
0: all assays above

NC(=O)C1CCN(CCc2ccccc2)CC1
0: all assays above

COCCNC1CCN(C(C)=O)CC1
0: all assays above

CC(C)c1ccc(CN2CCC(O)CC2)cc1
0: all assays above

Some of these compounds in order of number of heavy atoms, ascending:
COCCNC1CCN(C(C)=O)CC1
0: all assays above

O=C(Nc1nncs1)c1ccccc1F
0: all assays above

O=C(Nc1ccc(O)cc1)N1CCOCC1
0: all assays above

CC(C)c1ccc(CN2CCC(O)CC2)cc1
0: all assays above

Remaining list, next part

Nc1cccc(OCc2ccccc2)c1
0: all assays above

CCN1CCN(C(=O)NC2CCCCC2)CC1
0: all assays above

CCc1csc(-c2c[nH]cn2)n1
0: all assays above

O=C(Nc1nnc[nH]1)c1cccnc1Cl
0: all assays above

Cn1cc(CNC(=O)c2ccco2)cn1
0: all assays above

Nc1cc(C(F)(F)F)ccc1N1CCCCC1
0: all assays above

CN(CCc1ccccn1)C(=O)c1ccccc1
0: all assays above

Cc1ccc(NC(=O)c2ccco2)cc1O
0: all assays above

Clc1snnc1CN1CCOCC1
0: all assays above

CC(=O)NC1CCC(N)CC1 (stereo not given)
0: all assays above

COCC(=O)Nc1c(C)cc(C)cc1C
0: all assays above

Nc1nccc(-c2ccc(Cl)cc2)n1
1: [2]
0: all other assays above

Cl.NC1CCN(S(=O)(=O)c2ccccc2)C1 (stereo not given)
0: all assays above

O=C(Nc1ccc(N2CCOCC2)cc1)C1CC1
0: all assays above

CCCn1nnnc1NC(=O)c1ccco1
0: all assays above

CC1CN(C(=O)c2cnccn2)CCO1 (stereo not given)
0: all assays above

CCN(C)C(=O)c1cccc(N)c1
1: SARS-CoV-2 5_SL8 RNA
0: all other assays above

CC(NC(=O)C1CCCC1)C(=O)O (stereo not given)
0: all assays above

CCCc1cc(=O)oc2cc(OC(C)=O)ccc12
0: all assays above

CC(=O)Nc1ccccc1OCc1ccccc1
0: all assays above

O=C(NCCc1ccc(F)cc1)c1ccco1
0: all assays above

COc1ccc(CNC(=O)c2cnccn2)cc1
0: all assays above

Clc1cccc(CN2CCOCC2)c1
0: all assays above

Cc1c(Cl)cccc1NC(=O)C1CCCO1 (stereo not given)
0: all assays above

COc1ccc(CNC2CCCC2)cc1
0: all assays above

CC(C)NC(=O)N(C)Cc1cnn(C)c1
0: all assays above

CNC(=O)c1ccc(CS(C)(=O)=O)cc1
0: all assays above

CCNC(=O)N1CCN(C(C)=O)CC1
0: all assays above

Cc1c(C(=O)NCC2CCC2)cnn1C
0: all assays above

CC1CCCCN1CCN (stereo not given)
0: all assays above

C(#Cc1ccccc1)CN1CCCCC1
0: all assays above

N#Cc1ccc(N2CCNCC2)c(F)c1
0: all assays above

CC(N)c1ccc(NC(=O)C2CC2)cc1.Cl (stereo not given)
0: all assays above

Cc1ccc(CN(C)Cc2ccccc2)o1
0: all assays above

CC(=O)NCc1cn[nH]c1
0: all assays above

CC1C(O)CCCN1Cc1ccccc1 (stereo not given)
0: all assays above

COc1ccc(C(=O)NCC(N)=O)cc1
0: all assays above

CCc1noc(C)c1C(=O)Nc1cc(C)on1
0: all assays above

CN1CCN(c2ncccc2F)CC1=O
0: all assays above

O=C(c1csnn1)N1CCOCC1
0: all assays above

CCOC(=O)c1ccc(F)cc1F
0: all assays above
